# Reference: PMC5996148
# The other results are listed elsewhere or left out.
# How the values were obtained:
# Test in all cases: protein microarray (ProtoArray v5.0), streptavidin-Alexa Fluor 647
# Settings in all cases: 3'-biotin; 20 mM Tris (pH 7.5), 5 mM MgCl2, 100 mM KCl, 0.1% Tween-20, A/T-rich and random oligonucleotide blockers; temperature not stated; high values mean tight binding
# Galectin-3 (human) = system: Galectin-3 (human)
# [1] = system: Ganglioside GM2 activator (human)
# [2] = system: Geranylgeranyl pyrophosphate synthetase (human)
# [3] = system: Glucose-6-phosphate translocase (human)
# [4] = system: Glucose-fructose oxidoreductase domain-containing protein 1 (human)
# [5] = system: Glutamate decarboxylase 1 (human)
# [6] = system: Glutamate decarboxylase 2 (human)
# [7] = system: Glutaminyl-tRNA synthetase (human)
# [8] = system: Glutathione S-transferase A4 (human)
# [9] = system: Glutathione S-transferase Mu 5 (human)
# [10] = system: Glycolipid transfer protein (human)
# [11] = system: Glycosyltransferase 1 domain-containing protein 1 (human)
# [12] = system: Guanine nucleotide exchange factor for Rab3A (human)
# [13] = system: Guanine nucleotide-binding protein subunit alpha-11 (human)
# [14] = system: Guanylate cyclase activator 2B (human)
# HAAO (human) = system: HAAO (human)
# HAS3 (human) = system: HAS3 (human)
# HAVCR2 (human) = system: HAVCR2 (human)
# HAX1 (human) = system: HAX1 (human)
# HBD (human) = system: HBD (human)
sequence,measurement,setting,value
GGTGACAGGGGTATGGGGAGGGG [G4-2 biotinylated (Ct1)],binding signal,Galectin-3 (human),-0.393 z-score
same,binding signal,[1],-0.379 z-score
same,binding signal,[2],-0.395 z-score
same,binding signal,[3],-0.389 z-score
same,binding signal,[4],-0.397 z-score
same,binding signal,[5],-0.38 z-score
same,binding signal,[6],-0.391 z-score
same,binding signal,[7],-0.393 z-score
same,binding signal,[8],-0.39 z-score
same,binding signal,[9],-0.393 z-score
same,binding signal,[10],-0.4 z-score
same,binding signal,[11],-0.359 z-score
same,binding signal,[12],-0.375 z-score
same,binding signal,[13],-0.376 z-score
same,binding signal,[14],-0.37 z-score
same,binding signal,HAAO (human),-0.399 z-score
same,binding signal,HAS3 (human),-0.378 z-score
same,binding signal,HAVCR2 (human),-0.391 z-score
same,binding signal,HAX1 (human),-0.377 z-score
same,binding signal,HBD (human),-0.373 z-score

# 2 entries from above, with tabs:
sequence	measurement	setting	value
GGTGACAGGGGTATGGGGAGGGG [G4-2 biotinylated (Ct1)]	binding signal	[11]	-0.359 z-score
same	binding signal	[12]	-0.375 z-score
